Experimental data published in PMC10163288.
The other results are listed elsewhere or left out.

B1: il2ra_site2_3nfp_sap_21_mot_HHH_b1_04050_af2_000000227_0001_39_53_H_._HHH_b1_08095_af2_0001_0000200006_0000001_0_0001 (protein)
chain: DAALRLAELVRKLGDWKLLALLYAAIAKLYRKDPEEALRVLEELVELLEEGNDEEAERLAEEVRK
B2: il2ra_site2_3nfp_normal_mot_HHH_b1_05918_af2_000000127_0001_23_40_H_._HHH_b1_07797_0001_0000400047_0000001_0 (protein)
chain: SSSSSEAEEYLRAALLLAELALREGDEENARRSLELAIQLAEHKGNPELLEELEELLEEINSSSS
B3: il2ra_site1_2b5i_sap_10_mot_HHH_b1_06258_af2_000000112_0001_42_56_H_._HHH_b2_08033_af2_0001_0000100003_0000001_0_0001 (protein)
chain: SSSDLQELNRIAAEIVDELAEEFGLDAEQIRLLTRLAVELVWRGVSPEEIEEELRKLAEELSSSS
B4: il2ra_site2_2erj_sap_18_mot_HHH_b1_07609_af2_000000145_0001_21_36_H_._HHH_b1_06048_0001_0000200020_0000001_0_0001 (protein)
chain: SSSSDEELHELFELANELLRLLTEGDEERIEELREELEKLAEEAGSPALVRMVREAVRANLSSSS
B5: il2ra_site1_3nfp_sap_22_mot_HHH_b2_05674_000000170_0001_23_39_H_._HHH_b2_06768_0001_0000200010_0000001_0_0001_af2pred_0001_af2pred (protein)
chain: SSSSSDEEYEERIRELLERAKHVDPREAAKLFKEALKIAAELGDPELKRLIAEVLKKLAESSSSS
B6: il2ra_site1_3nfp_normal_mot_1cd86ef9f1587ae5d14d35bbbd8e7f1d_0001_1_000000087_0001_34_49_H_._HHH_b1_05184_af2_0001_0000200007_0000001_0_af2pred_0001_1_af2pred_s … (protein)
chain: SSSSDEEAEELLEEIRKQLEELLKRGNPREASKLAEEAYEELVRLGNPELAEELMRFAHKLSSSS
B7: il2ra_site2_2erj_sap_15_mot_44d7d87cef3b3f1636c8b2572508b1bf_0001_1_af2_000000043_0001_37_65_H_._HHH_b1_00092_0001_0000200007_0000001_0_0001 (protein)
chain: SSSSDEVAKEVNELVRRAVEAAQNGNPEEAEELLEEALRVAEEGNNPELAEAVELMIKFLSSSSS
B8: il2ra_site1_2b5i_sap_11_mot_HHH_b1_02217_af2_000000060_0001_42_56_H_._HHH_b1_08219_0001_0000700019_0000001_0_0001_af2pred_0001_af2pred (protein)
chain: SSSSDEAEEVFELLEEANKLFKNGNPEEAEKILERAEELAKEINSPNLLKLIEAALKLIRSSSSS
B9: il2ra_site1_2b5i_normal_mot_HHH_b2_04910_000000118_0001_1_19_H_._HHH_b1_03408_0001_0000500036_0000001_0_af2pred_dldesign_0_af2pred (protein)
chain: SSSSSPEVKEALELFKKADELFKAGKEEEAKELLEKALKLLEEAKSSKKKFVEAALKQLESSSSS
B10: il2ra_site1_3nfp_normal_mot_HHH_b1_01335_af2_000000105_0001_39_53_H_._HHH_b2_00121_0001_0000200007_0000001_0_af2pred_0001_af2pred (protein)
chain: SSSSSEEEVREVLEEAERAAEEGDIQRVDELLREALKLANENKDEEARELVRKFAEELAEESSSS
B11: il2ra_site2_2erj_normal_mot_HHH_b2_00494_000000216_0001_41_54_H_._HHH_b2_06608_0001_0000400032_0000001_0 (protein)
chain: SSSSDEELKRLYELADRALELLYRGNPEEAREVLEEARELAEKLGSDNAREAIEFLEEQINSSSS
B12: il2ra_site1_2b5i_sap_10_mot_HHH_b2_03947_af2_000000011_0001_39_52_H_._HHH_b1_03827_0002_0000300009_0000001_0_0001 (protein)
chain: SSSSDIEEQIDELFREASELWRKGNPEEARKLLEEALELAEEANDPEAARDIEQMLRMAGSSSSS
B13: il2ra_site1_2b5i_sap_8_mot_a1647c6a1bc1795bd61f8ac90a0f45d0_0001_1_000000140_0001_54_65_H_._490c46be001311c379c03e06fdb6e4f5_0001_1_0001_0000100006_0000001_0_00 … (protein)
chain: SSSSSSDEEEEIAELFSEASRIRDPEEAREVLEEAKRLAEELNDEKIKKQIEALQRWRRSSSSSS
B14: il2ra_site1_2b5i_normal_mot_f5ff40796168375b462bec8614a1db4a_0001_1_000000138_0001_53_65_H_._HHH_b2_03376_0001_0000200014_0000001_0_af2pred_dldesign_0_af2pred (protein)
chain: SSSSSSPEELCEELKAEVEALLAAGDTERARKLALLLRRIAKKLKNEEILKECDALLAALSSSSS
B15: il2ra_site1_1z92_normal_mot_07d2d8a42fb0c6931fb03626c2a0eeb8_0001_000000112_0001_36_50_H_._f0ee23d083d0677da3dfcc8a6cd225b6_0001_af2_0001_0000200007_0000001_0 (protein)
chain: SEEEEEIEEEIKKVPDPVIREVLEILLKLARQGDPTARFALEQLLKKLELGNPRSARNIAQKLLR
B16: il2ra_site1_2b5i_sap_2_mot_05650c620ad560ee7d778618fc3b96ad_0001_000000157_0001_16_30_H_._HHH_b1_04080_0001_0000100001_0000001_0_0001_af2pred_dldesign_0_af2pred (protein)
chain: SSSSDAEELRALFLKANELHQAGKDEEAIEVLEKALELARARGATGWVRFIELALKQVLESSSSS
B17: il2ra_site1_2b5i_normal_mot_HHH_b1_02271_000000068_0001_1_16_H_._HHH_b2_02493_af2_0001_0000400015_0000001_0_af2pred_dldesign_0_af2pred (protein)
chain: SSSSSSEKREEARRLIEEAKKEKNLREALKLLEEAVKLAEELNDEELAEEAERLARELLSSSSSS
B18: il2ra_site1_2b5i_normal_mot_HHH_b2_04910_000000118_0001_1_19_H_._HHH_b1_05981_0001_0000700008_0000001_0_af2pred_dldesign_0_af2pred (protein)
chain: SSSSMEEVRKLFLEADKLFQAGKNDEALKVLEEALKLAKEAGSKLAVRLCENAIKQIKSLSSSSS
B19: il2ra_site2_3nfp_normal_mot_HHH_b2_00429_000000100_0001_21_37_H_._HHH_b2_04487_0001_0000100009_0000001_0 (protein)
chain: SSSSSDEEIEELLEQLERLLEEGDEEKFQRAVAKAAHVIYRLNDHEAFARLADLVFELLGSSSSS

These binders were tested against il2ra, P01589 (assay: yeast display titration).

Apparent Kd, inactive:
B1 no binding seen, B2 no binding seen, B3 no binding seen, B4 no binding seen, B5 no binding seen, B6 no binding seen, B7 no binding seen, B8 no binding seen, B9 no binding seen, B10 no binding seen, B11 no binding seen, B12 no binding seen, B13 no binding seen, B14 no binding seen, B15 no binding seen, B16 no binding seen, B17 no binding seen, B18 no binding seen, B19 no binding seen
